# Experimental data as given in the supplement of paper PMC3334620.
# In all, about 33,000 sequences were measured (“E-score (-0.5 to 0.5)”: median about -0.0059, highest 2% from about 0.26 on). This is one part of the list.
# Molecular target: T1, Cin5 (UniProt P40917)
# T1 sequence: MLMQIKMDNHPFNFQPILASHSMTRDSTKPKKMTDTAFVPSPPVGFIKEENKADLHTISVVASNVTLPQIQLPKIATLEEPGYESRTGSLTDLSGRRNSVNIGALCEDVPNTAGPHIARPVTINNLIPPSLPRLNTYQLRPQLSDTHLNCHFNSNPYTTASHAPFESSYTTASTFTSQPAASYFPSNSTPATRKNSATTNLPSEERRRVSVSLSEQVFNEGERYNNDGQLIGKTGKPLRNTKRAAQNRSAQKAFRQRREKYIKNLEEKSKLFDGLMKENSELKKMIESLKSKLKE
# Experiment: PBM E-score (8-mer binding enrichment) (E-score (-0.5 to 0.5)); higher = stronger / more preferred TF binding
# Conditions: protein concentration: 100 nM; construct: GST-full length
# Procedure, shortened: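 PURExpress in vitro transcription/translation supplied GST-tagged yeast transcription factors, either full-length or DNA-binding domain. Applied at about 100-200 nM to universal all-10-mer Agilent arrays double-stranded by primer extension, the bound protein was detected with fluorescent anti-GST. E-scores, modified Wilcoxon-Mann-Whitney statistics, were given by the Universal PBM Analysis Suite to ungapped eight-base words pooled with their reverse complements after masliner normalisation.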
row,Sequence,PBM E-score
1,GGTCGTGA,-0.12
2,TCAATGGA,-0.00944
3,CTCTTATA,0.147
4,AATTATCT,0.331
5,AGATGCAG,0.00347
6,GTAGCGTA,0.084
7,AGTGTGCA,0.0784
8,ACGTTGAT,0.17
9,CTGGCGGC,-0.115
10,CAAGACGA,-0.0306
11,CATAGGTA,-0.00172
12,ACAGCCCA,-0.0887
13,ATTTGAGC,0.0476
14,CCGACCGG,-0.211
15,CGATGCAA,0.043
16,ATGACATA,0.296
17,ATTCGATG,-0.0175
18,ATCGCTCA,0.0669
19,ACCATGGC,-0.00051
20,CCATCCCG,-0.073
21,AAAAGATA,0.0936
22,CTTATCCA,0.221
23,AACCGATA,0.146
24,TATCTCAA,0.261
25,AACTCCTG,-0.131

row,Sequence,PBM E-score
1,GATTTGCA,0.111
2,CGAGACCG,-0.157
3,GGCAATAC,0.136
4,GCCTTCGA,-0.109
5,AGTGGAAA,0.0448
6,AAGCAGAC,0.0637
7,CTTCATAC,0.165
8,ATCAACAC,0.191
9,ACATCTAG,0.101
10,TCTAGACA,0.0397
11,CTGAAAGA,-0.137
12,CCGTGCGA,0.0387
13,ATCGGGCC,-0.133
14,GCGAGTCC,-0.157
15,CTGTCGCC,0.0178
16,CGCCTGGA,-0.0759
17,GAGCTCTA,0.0676
18,CTTGAGCC,-0.241
19,AATCAACA,0.348
20,ACGTAAGA,0.347
21,TAATTCAA,0.0887
22,GACTCGAA,-0.184
23,GATGGCGC,-0.099
24,CGTGGATC,0.0485
25,ATAGGCAT,-0.0318

row,Sequence,PBM E-score
1,CTGTCAAA,-0.0972
2,GTCACACA,0.0464
3,ACTACTAT,0.26
4,CACTTTGG,0.00445
5,TCGATAAA,0.0574
6,CATCTAAG,0.0787
7,AGACCTAC,-0.178
8,AGGGGTTA,-0.062
9,GCCTTCAC,-0.0734
10,CAAATTGG,0.177
11,AAATGGGA,-0.0605
12,GCGAAAAA,0.152
13,AGACGGCC,-0.13
14,CCTAGCTC,-0.124
15,TAATCGAA,0.241
16,AGACCCTG,-0.0767
17,AACATGCA,0.151
18,GGTTTTAA,0.0958
19,CCACTGCA,-0.0478
20,CAAGATGG,-0.0761
21,GGCTTGAA,-0.0909
22,CCAACCCG,-3e-05
23,GGTGTGAA,0.133
24,CGTTGCAG,-0.141
25,CCTAATAG,-0.0619

# Single values from the results shown.
# GGCTTGAA | PBM E-score: -0.0909
# CCACTGCA | PBM E-score: -0.0478
# CCTAATAG | PBM E-score: -0.0619
# CACTTTGG | PBM E-score: 0.00445

# Next entries follow.

row,Sequence,PBM E-score
1,ACATTAGA,-0.107
2,GTGCTTTA,0.03
3,CACACATG,-0.103
4,GAGAGCGA,-0.0892
5,CCTTTGCC,-0.191
6,AATTCGTA,0.0723
7,CCGGTTGC,0.00629
8,ACACCGTG,-0.204
9,AATGGCGA,0.203
10,AGTTGGAT,0.0885
11,CGACATAC,0.104
12,AGTTACAC,0.154
13,GCAGGATA,0.00852
14,GACGGCAC,-0.212
15,ATATAGAG,0.052
16,CAGAATCG,0.00783
17,ACCTCCTA,-0.291
18,ATTCCCTC,-0.06
19,AAGCGGGT,-0.0601
20,GAACAGAA,0.0474
21,CCTTAAGA,-0.132
22,GTAAAGTA,0.305
23,AACCAGAG,-0.0306
24,CAAGTGTC,-0.0882
25,GCACGACC,-0.188

row,Sequence,PBM E-score
1,CCAATGTA,-0.0976
2,CGTTACTC,-0.175
3,CCGGTTAA,-0.0923
4,CGCAGGTA,-0.101
5,AGCCGGAC,0.0365
6,CGCCCCCC,-0.39
7,GGGGAGAA,-0.0915
8,ATTTATAC,0.253
9,AATTGGCC,0.0108
10,GCCTTCCA,-0.0984
11,TATCATGA,0.0928
12,GACCCGAC,-0.102
13,CCAAACGG,-0.0382
14,ACCTTATA,0.0747
15,ACCTAGAA,0.00041
16,ATACAGCG,-0.0913
17,CTTATAAC,0.191
18,ACGAGTAA,0.214
19,GCTCAGTA,0.0273
20,AAAGTTTG,0.122
21,CTACCCAC,-0.0866
22,CTCGGCCA,-0.0115
23,ACAATTCA,0.0301
24,TCCTGTAA,0.0685
25,ATGTATTC,0.104

# In a second layout: results already given
row | Sequence | PBM E-score
15 | ACCTAGAA | 0.00041
16 | ATACAGCG | -0.0913
17 | CTTATAAC | 0.191
18 | ACGAGTAA | 0.214

# Next results:

row,Sequence,PBM E-score
1,ACACCTGC,0.153
2,CTGCGAGA,-0.332
3,ACCTACTG,-0.0553
4,ACTGCTGG,-0.217
5,CGTGCACC,-0.165
6,GATCACCC,-0.0358
7,CGGAATTC,0.12
8,ACCGTGCC,-0.119
9,CTTATTAC,0.236
10,CCCGGGCG,-0.133
11,ACGTACTG,-0.0153
12,CACGTAGG,-0.128
13,ACGTGCTC,-0.119
14,CAGAAGCA,0.0999
15,ATACTAAC,0.166
16,ACGGCTCA,0.0209
17,AGCGAGAA,-0.0355
18,ACGTATCG,-0.015
19,CGCAGTGC,-0.175
20,TCAACAGA,0.106
21,TAGACCGA,-0.0533
22,CCTCATTC,0.0225
23,ATGCGTCA,0.00854
24,GCCTAATA,0.0511
25,ATCGTATG,0.156

row,Sequence,PBM E-score
1,CTATAAAA,-0.0202
2,CCAACGAA,0.0174
3,CTGAACCC,-0.0956
4,GCGACAAC,0.0474
5,AAGTAACC,0.106
6,GTACTCCA,-0.091
7,GAATTCTA,0.0978
8,GAAGTTCC,-0.13
9,ATGTTGTC,0.138
10,CGAACCCC,-0.127
11,AGGTGCGC,-0.195
12,CCACAAGA,-0.0338
13,CACGACAC,-0.121
14,CCGGCGGC,-0.0806
15,AGACACAC,-0.0299
16,ATAGCATG,-0.102
17,GGATAAAA,0.157
18,AGTGGACA,0.0344
19,AGTTCAGG,-0.0235
20,CGGGATAA,0.219
21,CACCTCCG,-0.114
22,CACTAGAA,-0.0106
